Laboratory results: patent US8551921B2, “Method for determining the toxicity of an environmental or chemical sample” (priority 2000, dated 2013)

Key:
[1] = system: 11 different microbial strains; details: MTC value of the strain showing the highest sensitivity
Experimental: • dispense 150 μl of growth medium with indicator in each well • add a concentration gradient of the chemical to be tested to rows B-H in a MARA plate (i.e. an indicator device according to the present invention) • incubate for 16 h • read absorbance values; and • analyse with software.
Microbial responses to different chemicals was estimated by kinetic measurements of their growth using the Labsystem automated IEMS reader. A computer software that could monitor incubation temperatures, reading intervals, and automatically transfer OD data to a computer was developed. A growth medium containing 0.05% peptone, 0.011% bromothymol blue (BTB), 1% sodium chloride and 0.3% glucose was added to all wells. The glucose acts as a carbon source, and during growth the microorganism will break down the glucose and produce acids, that will turn the initially blue indicator to yellow. Each microplate contains 12 columns and 8 rows, and thus in each plate, 11 lyophilized microbial strains were used (one for each column, the 12th column was used as negative control). […] In order to avoid drying out of the plates during the incubation, one drop of sterile mineral oil was added to each well. The plate was then incubated in the IEMS spectrophotometer and the absorbance value from each well was measured every second hour during 48 h. […]

[2] = system: Photobacterium phosphoreum; details: IC50-values, established assay; cited from earlier work

SMILES: CN1[C@@H]2CC[C@H]1CC(OC(=O)C(CO)c1ccccc1)C2.CN1[C@@H]2CC[C@H]1CC(OC(=O)C(CO)c1ccccc1)C2.O=S(=O)(O)O (some centres unmarked) [Atropin Sulphate]
- Inhibitory concentrations by method: MARA MTCmin [1]: 2.220 mg/mL
- Inhibitory concentrations by method: Microtox [2]: 3.094 mg/mL
